According to the supplement of paper PMC10338343:
± gives the standard deviation. Only a part is listed here, and it is no random draw. The uncertainty is large for many entries.

Assays:
[1] = system: MILI (PIWIL2) piRISC loaded with piRNA #1 (26 nt); assay: pre-steady-state target cleavage rate (min^-1); higher = faster piRNA-guided slicing of the target; settings: guide: piRNA #1 5'p-UGAGGUAGUAGGUUGUAUAGUAUCCA; auxiliary factor: 500 nM mouse GTSF1;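 note: 1 nM active piRISC with 0.1 nM target library at 33 °C single turnover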
Procedure, shortened: (§1)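 Active affinity-purified piRISC carrying one synthetic guide (1 nM) was mixed with a transcribed, DNA-blocked target RNA library […] in HEPES–potassium acetate buffer at 33 °C for 0–8 or 0–960 min, with or without 500 nM GTSF1 partner protein. Uncleaved targets were then sequenced and normalised to depth and to weakly complementary targets. Three trials were pooled, and k3 was capped at 0.0001 min^-1. A burst-and-steady-state fit was applied to obtain the pre-steady-state cleavage rate.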

[2] = system: EfPiwi piRISC loaded with piRNA #1 (26 nt); assay: pre-steady-state target cleavage rate (min^-1); guide: piRNA #1 5'p-UGAGGUAGUAGGUUGUAUAGUAUCCA; MIWI and MILI are mouse PIWI proteins and EfPiwi is from a freshwater sponge; tags in brackets are library labels; higher = faster piRNA-guided slicing of the target; settings: auxiliary factor: 500 nM Ephydatia muelleri Gtsf1
Procedure, shortened: as §1

Sequence: GGAGACCUUACUAUACAACCUACCACCUCA
- pre-steady-state target cleavage rate [1]: 0.118 ± 0.015
- pre-steady-state target cleavage rate [2]: 0.00291 ± 0.003

Sequence: GGAGACCUAUGAUUACGAACCUACUACCUCA
- pre-steady-state target cleavage rate [1]: 0.000367 ± 0.0099
- pre-steady-state target cleavage rate [2]: 0.000881 ± 0.008

Sequence: GGAGACCUAACUAUACAUCCUACUACCACA
- pre-steady-state target cleavage rate [1]: 0.251 ± 0.046
- pre-steady-state target cleavage rate [2]: 0.00275 ± 0.0047

Sequence: GGAGACCUAUGAUAUGAACGUACUACCUCA
- pre-steady-state target cleavage rate [1]: 0.000305 ± 0.0076
- pre-steady-state target cleavage rate [2]: 0.00038 ± 0.0082
